# PubChem BioAssay AID1259424, University of Nebraska Medical Center – 2018
# Aim: 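Seek colon cancer survival genes behaving like KSR1, using a six-gene signature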 (primary screen)
# System: human HCT116 colon cancer cells
# Reagent: siRNA pool against human genes, 50 nM
# Detection: 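Log2 levels of six mRNAs (branched-DNA multiplex), adjusted by two reference genes and the non-targeting median, then scored against the average KSR1 knockdown pattern as Pearson r and euclidean distance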
# Scale: mean correlation with KSR1 profile and KSR1 correlation: higher = expression change more like KSR1 knockdown; mean distance from KSR1 profile: higher = expression change less like KSR1 knockdown
# Here is a random part of about 14,000 reagents tested. 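Higher correlation or smaller distance means closer resemblance to KSR1 loss; control wells, including KSR1 knockdowns, recur on many plates.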 No sequences are given here. Not stated in the record: the time to read-out.
target gene,mean correlation with KSR1 profile,mean distance from KSR1 profile,"KSR1 correlation, replicate 1","KSR1 correlation, replicate 2","KSR1 correlation, replicate 3"
SH2D4A (GeneID 63898),-0.576,1.6,-0.653,-0.52,-0.426
MRPS24 (GeneID 64951),0.203,1.69,-0.0898,0.326,0.198
SMPD1 (GeneID 6609),0.354,2.62,0.265,0.4,0.379
RAB3GAP2 (GeneID 25782),-0.172,1.49,-0.0908,-0.102,-0.226
OR1D4 (GeneID 653166),0.3,2.12,0.485,0.44,0.00436
TOMM20 (GeneID 9804),-0.367,2.04,-0.327,-0.429,-0.0813
TMEM258 (GeneID 746),-0.718,2.97,-0.452,-0.672,-0.714
LAMTOR5 (GeneID 10542),-0.208,2.31,-0.0452,-0.267,-0.344
G6PC1 (GeneID 2538),-0.29,2.9,0.000427,-0.00142,-0.452
PUM2 (GeneID 23369),-0.232,1.91,-0.18,-0.344,-0.0888
KARS1 (GeneID 3735),-0.0559,1.39,-0.55,-0.492,0.748
AAAS (GeneID 8086),-0.0112,2.12,-0.183,0.235,-0.09
NEU1 (GeneID 4758),-0.267,2.45,-0.33,-0.267,-0.349
POLD4 (GeneID 57804),-0.345,6.67,-0.362,-0.124,-0.25
MIP (GeneID 4284),0.349,1.44,0.468,0.104,0.168
SLC25A19 (GeneID 60386),0.297,2.22,0.257,0.423,0.301

5 successive records from above:
target gene,mean correlation with KSR1 profile,mean distance from KSR1 profile,"KSR1 correlation, replicate 1","KSR1 correlation, replicate 2","KSR1 correlation, replicate 3"
KARS1 (GeneID 3735),-0.0559,1.39,-0.55,-0.492,0.748
AAAS (GeneID 8086),-0.0112,2.12,-0.183,0.235,-0.09
NEU1 (GeneID 4758),-0.267,2.45,-0.33,-0.267,-0.349
POLD4 (GeneID 57804),-0.345,6.67,-0.362,-0.124,-0.25
MIP (GeneID 4284),0.349,1.44,0.468,0.104,0.168

More reagents:
target gene,mean correlation with KSR1 profile,mean distance from KSR1 profile,"KSR1 correlation, replicate 1","KSR1 correlation, replicate 2","KSR1 correlation, replicate 3"
BCL2 (GeneID 596),0.642,1.96,0.797,0.475,0.0352
GABPB1 (GeneID 2553),-0.632,3.54,-0.636,-0.687,-0.553
PAGR1 (GeneID 79447),0.211,1.78,0.397,0.367,0.014
KCNMB4 (GeneID 27345),0.0537,1.97,-0.109,-0.0792,-0.0682
HSPE1 (GeneID 3336),0.43,2.36,0.351,-0.663,0.561
PDCD6IP (GeneID 10015),-0.352,1.76,-0.391,-0.619,-0.295
SAMM50 (GeneID 25813),-0.116,1.73,0.179,-0.464,0.0628
CAPG (GeneID 822),-0.0875,2.41,-0.148,-0.103,0.0731
CALM2 (GeneID 805),0.542,3.02,0.745,0.352,0.511
IMMT (GeneID 10989),0.197,0.898,0.263,0.25,-0.0664
FGF12 (GeneID 2257),0.339,2.1,0.319,0.247,0.373
CCL5 (GeneID 6352),0.202,1.52,0.273,0.151,0.125
YIPF1 (GeneID 54432),0.477,1.35,0.407,0.378,0.548
MCRS1 (GeneID 10445),-0.524,3.61,-0.512,-0.573,-0.462
SMPDL3A (GeneID 10924),0.284,1.51,0.26,0.258,0.442
CYP2W1 (GeneID 54905),-0.446,1.88,-0.153,-0.562,-0.625
CDKL5 (GeneID 6792),-0.182,2.86,-0.538,-0.441,0.0778
CEACAM1 (GeneID 634),0.279,2.73,0.387,0.285,0.0149
